Assay results reported in publication PMC6340896.
These are yes or no findings as the source states them, for the method shown. In cells and extracts the contact can be indirect. Here binding means that the protein was enriched with, or labelled near, the bait; the list need not be complete. Sequences can lack the tags named with a protein.

Sequences of proteins named here, by UniProt entry; tags and fusion partners are left off. A change or cut given only in a name is not applied to a line headed by its entry.
UniProt P05737: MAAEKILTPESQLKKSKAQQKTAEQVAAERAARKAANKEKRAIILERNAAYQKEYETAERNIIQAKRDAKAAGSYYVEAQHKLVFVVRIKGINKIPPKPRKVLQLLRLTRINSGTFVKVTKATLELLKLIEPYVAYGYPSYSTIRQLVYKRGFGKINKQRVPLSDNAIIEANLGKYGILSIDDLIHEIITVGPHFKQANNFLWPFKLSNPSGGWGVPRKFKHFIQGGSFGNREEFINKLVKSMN
UniProt P38061: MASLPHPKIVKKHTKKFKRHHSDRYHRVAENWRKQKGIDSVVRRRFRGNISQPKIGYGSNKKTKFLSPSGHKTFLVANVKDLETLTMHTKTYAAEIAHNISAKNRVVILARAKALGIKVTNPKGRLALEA
UniProt Q03532: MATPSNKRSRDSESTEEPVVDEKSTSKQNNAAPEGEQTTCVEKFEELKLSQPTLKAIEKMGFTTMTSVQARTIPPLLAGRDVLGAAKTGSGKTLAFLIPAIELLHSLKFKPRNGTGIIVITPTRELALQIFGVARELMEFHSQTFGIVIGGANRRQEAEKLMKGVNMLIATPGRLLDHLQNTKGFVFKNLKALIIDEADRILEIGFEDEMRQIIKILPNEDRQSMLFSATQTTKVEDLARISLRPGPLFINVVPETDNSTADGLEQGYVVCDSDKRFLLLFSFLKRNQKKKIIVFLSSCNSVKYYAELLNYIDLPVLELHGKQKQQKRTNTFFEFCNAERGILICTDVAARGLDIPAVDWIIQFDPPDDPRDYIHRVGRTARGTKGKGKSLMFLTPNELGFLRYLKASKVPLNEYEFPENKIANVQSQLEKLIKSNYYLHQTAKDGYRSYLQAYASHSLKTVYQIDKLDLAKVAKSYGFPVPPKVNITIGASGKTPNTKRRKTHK
UniProt Q12522: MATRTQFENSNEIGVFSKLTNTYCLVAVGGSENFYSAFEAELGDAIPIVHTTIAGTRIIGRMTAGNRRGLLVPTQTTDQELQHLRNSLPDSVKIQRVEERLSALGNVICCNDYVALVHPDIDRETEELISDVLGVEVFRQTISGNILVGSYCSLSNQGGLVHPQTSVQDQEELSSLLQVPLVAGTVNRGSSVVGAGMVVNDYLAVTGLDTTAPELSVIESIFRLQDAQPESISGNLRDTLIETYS

T1: Rpf1 fused to a C-terminal tandem affinity purification (TAP) tag (S. cerevisiae (endogenous in BY4741)) (UniProt P38805)
T1 sequence: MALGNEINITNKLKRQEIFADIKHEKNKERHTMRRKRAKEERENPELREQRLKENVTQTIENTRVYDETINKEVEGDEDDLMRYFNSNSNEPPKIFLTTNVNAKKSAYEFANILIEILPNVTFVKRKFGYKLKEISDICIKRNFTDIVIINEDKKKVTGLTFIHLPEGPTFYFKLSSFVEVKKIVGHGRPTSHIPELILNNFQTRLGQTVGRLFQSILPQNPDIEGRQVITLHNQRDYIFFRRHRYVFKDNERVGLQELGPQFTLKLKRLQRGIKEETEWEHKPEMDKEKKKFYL

T2: Rpf1 fused to a C-terminal tandem affinity purification (TAP) tag (S. cerevisiae (endogenous in BY4741)), P38805
T2 chain: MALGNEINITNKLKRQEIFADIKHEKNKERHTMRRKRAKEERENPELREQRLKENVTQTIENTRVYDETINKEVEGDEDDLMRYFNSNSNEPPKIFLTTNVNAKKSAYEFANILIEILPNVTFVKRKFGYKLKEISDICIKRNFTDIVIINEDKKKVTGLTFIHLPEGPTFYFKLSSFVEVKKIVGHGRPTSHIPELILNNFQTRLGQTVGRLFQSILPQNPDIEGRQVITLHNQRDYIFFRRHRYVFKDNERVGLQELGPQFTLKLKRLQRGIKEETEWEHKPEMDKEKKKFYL


Molecular target: T1, Rpf1 fused to a C-terminal tandem affinity purification (TAP) tag (S. cerevisiae (endogenous in BY4741))
Assay: affinity purification with mass spectrometry; Rpf1-TAP pre-60S particle from yeast lysate on IgG-coated Dynabeads, released with TEV protease; composition told by mass spectrometry, by cross-linking with mass spectrometry and by the proteins modelled in the map; the particle holds rRNA
Settings: not given

| binding | Molecule |
| --- | --- |
| binds | ribosomal protein L7 (from UniProt P05737) |
| binds | ribosomal protein L32 (from UniProt P38061 1-130) |
| binds | ribosomal protein L4 (S. cerevisiae (endogenous in BY4741)) |
| binds | Has1 (from UniProt Q03532 1-505) (enzyme) |
| binds | Tif6 (from UniProt Q12522 1-245) |

Molecular target: T2, Rpf1 fused to a C-terminal tandem …
Assay: as above
Settings: remark: other sources report otherwise

| binding | Molecule |
| --- | --- |
| binds | Ebp2, P36049 1-427 (protein) MAKGFKLKELLSHQKEIEKAEKLENDLKKKKSQELKKEEPTIVTASNLKKLEKKEKKADVKKEVAADTEEYQSQALSKKEKRKLKKELKKMQEQDATEAQKHMSGDEDESGDDREEEEEEEEEEEGRLDLEKLAKSDSESEDDSESENDSEEDEDVVAKEESEEKEEQEEEQDVPLSDVEFDSDADVVPHHKLTVNNTKAMKHALERVQLPWKKHSFQEHQSVTSETNTDEHIKDIYDDTERELAFYKQSLDAVLVARDELKRLKVPFKRPLDYFAEMVKSDEHMDKIKGKLIEEASDKKAREEARRQRQLKKFGKQVQNATLQKRQLEKRETLEKIKSLKNKRKHNEIDHSEFNVGVEEEVEGKRFDRGRPNGKRAAKNAKYGQGGMKRFKRKNDATSSADVSGFSSRKMKGKTNRPGKSRRARRF |

Molecular target: T1, Rpf1 fused to a C-terminal tandem affinity purification (TAP) tag (S. cerevisiae (endogenous in BY4741))
Assay: as above
Settings: not given
Remark: another data set of the same source

| binding | Molecule |
| --- | --- |
| binds | Brx1 (protein, UniProt Q08235 1-291) MSSIYKALAGKSKDNKSEKKQGNVKQFMNKQRTLLISSRGVNYRHRHLIQDLSGLLPHSRKEPKLDTKKDLQQLNEIAELYNCNNVLFFEARKHQDLYLWLSKPPNGPTIKFYIQNLHTMDELNFTGNCLKGSRPVLSFDQRFESSPHYQLIKELLVHNFGVPPNARKSKPFIDHVMSFSIVDDKIWVRTYEISHSTKNKEEYEDGEEDISLVEIGPRFVMTVILILEGSFGGPKIYENKQYVSPNVVRAQIKQQAAEEAKSRAEAAVERKIKRRENVLAADPLSNDALFK |
| binds | ribosomal protein L18 (protein, UniProt P0CX49 1-186) MGIDHTSKQHKRSGHRTAPKSDNVYLKLLVKLYTFLARRTDAPFNKVVLKALFLSKINRPPVSVSRIARALKQEGAANKTVVVVGTVTDDARIFEFPKTTVAALRFTAGARAKIVKAGGECITLDQLAVRAPKGQNTLILRGPRNSREAVRHFGMGPHKGKAPRILSTGRKFERARGRRRSKGFKV |
| binds | Rrp1 (protein, UniProt P35178 1-278) METSNFVKQLSSNNRKTRVNALEALKKYLTAKQFKENKQIEFNKLWKGLYYAMWFSDRPRPQQRLANELGELHGLYFDPKDNSTADELTTNDKAFIKFSRGFWKVMCFEWFNIDRYRLDKYLLLIRRVLFSQLKYLQSRNWDKKLVDEYIKKVLRWLPLSGSPKVYTGIPIHIVDILLDEWERLLKDGDEDDEDEENKEEEMRKIAESAKKTPLADVIAIFQDIVADYNNSKVLREKIKEDLFSDTRLVSWDILEGETQHNDSSNESEEEEEEEWKGF |
| binds | Nop15 (protein, UniProt P53927 1-220) MVKSTSKTSTKETVTKQPTEEKPIQEKEELALETSSSSSDEEDEKDEDEIEGLAASDDEQSGTHKIKRLNPKKQANEKKSKDKKTLEEYSGIIYVSRLPHGFHEKELSKYFAQFGDLKEVRLARNKKTGNSRHYGFLEFVNKEDAMIAQESMNNYLLMGHLLQVRVLPKGAKIEKLYKYKKRVLVEKGITKPVKQLKDNMKQKHEERIKKLAKSGIEFKW |
| binds | Cic1 (protein, UniProt P38779 1-376) MAKKSNSKKSTPVSTPSKEKKKVIEKKSSTAIPRERVIKAVNELIKFTSKPQDENNEEGNNGKKNLLEDDEEELKKDLQLIVVNNKSFTGTSKSFKLKLLNVKHSFYKPWKEASATAVKDFKVLLILKDSDIKKVSEDDLFDQLDSEGIKVDEIICGKDLKTVYKAYEARNAFISQFSLILADDSIVTSLPKLMGGKAYNKVETTPISIRTHANKEFSLTTLTNNIKKVYMNQLPVKLPRGTTLNVHLGNLEWLRPEEFVDNVELISEQLIKAYQIRSIFIKTNRSPVLPLYYNQDVLDELEAKKDKIEETHEDDMVTIDGVQVHLSTFNKGLMEIANPSELGSIFSKQINNAKKRSSSELEKESSESEAVKKAKS |
